Patent US11261152B2, “Inhibitors of the N-terminal domain of the androgen receptor” (The Regents of the University of California, priority 2017, dated 2022)
For at least one compound, name, drawing or mass did not settle the structure.

Test system: AR transcriptional activity (MMTV reporter)
Assay: MMTV reporter assay
Format: cell-based
Conditions: Table 3 grade HIGH/MED/LOW, grades not defined

CN(C)CCC(=O)/C(=C\c1ccc(Br)cc1)c1ccccc1 [JN015]
MMTV: HIGH
